Source: PubChem BioAssay AID686937 (Drosophila RNAi Screening Center, 2013)

Screen: 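Genes whose loss weakens secretory pathway function in fly cells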 (primary screen)
System: Drosophila S2 cells expressing secreted horseradish peroxidase
Reagents: long dsRNA against Drosophila genes
Time to read-out: about 5.5 days (5 days dsRNA, then 12 h reporter induction)
Treatment: reporter expression induced after 5 days of dsRNA, read 12 h later; inducer not stated
Measurement: 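After 5 days of dsRNA and 12 h of reporter induction, medium peroxidase read by chemiluminescence and scored as per-plate z-score; higher values mean more reporter released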
Direction: z-score: higher = more reporter secreted into medium
The deposit covers about 23,000 reagents; below is an unselected part of those that have a named target and a result. 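Reduced-secretion tags in replicate 1 do not always agree with the z-scores; no criterion for assigning the tags was given.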 A plus sign joins genes that one reagent is predicted to hit. Not given: the amount of reagent.

Target gene	amplicon	z-score, replicate 1	z-score, replicate 2	z-score, replicate 3	z-score, replicate 4	phenotype, replicate 1
Npc1b	DRSC20488	0.25	0.25			
CG7582	DRSC16261	0.4	0.5			
CG3552	DRSC10370	0.18	0.13			
CG43069	DRSC05752	0.23	0.23			
CG32772	DRSC18052	0.48	0.39	0.22	0.13	reduced secretion
CG32772	DRSC18406	0.29	0.14			
CG32772	DRSC22349	-0.27	-0.33			
pont	DRSC17029	-1.19	-1.42			
CG2150	DRSC15420	0.39	0.34			
CG33230	DRSC08602	0.32	0.56			
CG1523	DRSC15033	0.34	0.11			
Nnf1b	DRSC22080	-0.5	-0.71			reduced secretion
CG31115	DRSC13692	0.03	0.41			
CG11905	DRSC09863	0.42	0.48			
CG15873	DRSC04277	0.08	0.1			
CG9449	DRSC11073	0.14	0			
CG15543	DRSC15081	0.48	0.42			
Cad96Ca	DRSC14220	0.18	0.24			
Cad96Ca	DRSC16693	0.18	0.29			
CG13428	DRSC06390	0.46	0.35			
Coq4 + frc	DRSC10381	-1.18	-0.75			
Coq4 + frc	DRSC10382	0.34	0.14			
TBC1d7 + mRpS24	DRSC14611	0.24	-0.03			
Fbp2	DRSC03327	0.41	0.4			
CG8046	DRSC07059	0.39	0.43			
Tsp86D	DRSC15607	0.31	0.63			
CG6179	DRSC19973	0.56	0.66			
CG13216	DRSC06338	0.27	0.5			
CG7080	DRSC16193	0.43	0.44			
CG34203	DRSC03855	0.08	0.17			
CG5087	DRSC10479	0.03	0.29			
CG7328	DRSC10812	0.33	0.36			
MCPH1	DRSC06309	0.4	0.29			
MCPH1	DRSC07308	0.39	0.46			
MCPH1	DRSC22536	0.09	-0.16			
Mat89Ba	DRSC14540	0.11	0.26			
CG17233	DRSC10259	-2.35	-2.82			reduced secretion
CG17821	DRSC06696	0.29	0.26			
CG34445	DRSC22404	-0.78	-0.55			
Atac1	DRSC03155	0.27	0.18			
Osi12	DRSC12177	0.42	0.65			
CG31233	DRSC15888	0.22	0.37			
su(Hw)	DRSC17074	0.21	0.24			
otp	DRSC04050	0.37	0.14			
otp	DRSC04707	0.26	0.12			
Prim2	DRSC11610	-0.15	-0.37			
CG31924	DRSC00689	0.17	0.26			
CG33140	DRSC06030	0.15	0.22			
Gr97a	DRSC13802	0.11	0.04			
CG1635	DRSC15131	0.09	0.32			
CG31800	DRSC22525	0.98	2.02			
Zasp66	DRSC08932	0.15	0.23			
Zasp66	DRSC10631	0.43	0.43			
Zasp66	DRSC10632	0.42	0.29			
CG31675	DRSC01825	0.46	-1.94			
didum	DRSC07603	0.35	0.31			
fzy	DRSC03534	-4.19	-3.93			reduced secretion
Caf1-105	DRSC06209	0.36	0.33			
Rhp	DRSC20279	0.23	0.16			
CycH	DRSC11861	-0.2	-0.47			
CycH	DRSC21308	-0.18	0.38			
Bx	DRSC19350	-0.41	-0.32			
Bx	DRSC19624	-0.08	-1.05			
CG15572	DRSC18060	0.44	0.29			
G9a	DRSC18619	0.3	0.37			
STUB1	DRSC03282	0.3	-0.03			
CG10332 (retired record) + IM18	DRSC04064	0.03	0.02			
wge	DRSC15246	0.04	0.12			
wge	DRSC15672	0.37	0.28			
TwdlL	DRSC16042	0.07	0.15			
Nadk1a	DRSC05431	-0.13	0.01			
Nadk1a	DRSC06963	-0.11	0.04			
CG12567	DRSC20845	0.52	0.29			
CR32733 + CG32797	DRSC17705	-2.74	-2.1	0.43	0.26	reduced secretion
pix	DRSC10533	-1.99	-0.88			
Zfrp8	DRSC04352	0.3	-0.24			
CG7168	DRSC16208	0.26	0.34			
RpS7	DRSC15394	-2.65	-4.28			reduced secretion
CG34316 + asRNA:CR43471	DRSC13080	0.41	0.07			
Cip4	DRSC08091	-0.13	0.52			
Cip4	DRSC08469	-1.05	-0.94			
Cip4	DRSC21740	-0.79	0.47			

Part of the list above, showing only “z-score, replicate 2”.
MCPH1 [DRSC22536]	-0.16
Mat89Ba [DRSC14540]	0.26
CG17233 [DRSC10259]	-2.82
CG17821 [DRSC06696]	0.26
CG34445 [DRSC22404]	-0.55
Atac1 [DRSC03155]	0.18
Osi12 [DRSC12177]	0.65
CG31233 [DRSC15888]	0.37
su(Hw) [DRSC17074]	0.24
otp [DRSC04050]	0.14
otp [DRSC04707]	0.12
Prim2 [DRSC11610]	-0.37
CG31924 [DRSC00689]	0.26
